# Measurements reported in PubChem BioAssay AID1159578 (Peter MacCallum Cancer Centre, 2015).
# Assay: 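Knock-downs that alter how fast lymphatic endothelial cells migrate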 (primary screen)
# Cell system: human lymphatic endothelial cells
# Knock-down reagent: siRNA pool against human genes, 40 nM
# Duration: 48 h after transfection
# Measured: 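High-content imaging of dye-stained cells in a scratch assay measures filled wound area and nuclei per well; duplicate means given as ratio to mock and robust z-score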
# Reading the numbers: migration robust z-score: higher = faster migration into the scratch; migration relative to mock: higher = more scratch area covered than mock; nuclei per well: higher = more cells in the well
# Active means: 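Pools averaging fewer than 3300 nuclei are never called; remaining pools count as changed when migration robust z lies outside -2 to 2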
# Calls: active = migration changed; inactive = no migration change, or too few cells
# Here is an unselected part of about 18,000 deposited reagents. In the full data, about 1,030 (5.7%) got an active call. 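Inactive calls also include pools with fewer than 3300 nuclei, whose migration was not assessed.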 Raw values vary from plate to plate and are shown uncorrected. Reagent sequences are not shown.
target gene,migration robust z-score,migration class with cell-count check,migration relative to mock,"nuclei per well, duplicate mean",outcome
SRFBP1,-1.27,migration z between -2 and 2; enough cells,0.55,6274,inactive
C9,-0.57,migration z between -2 and 2; enough cells,0.74,5501,inactive
MS4A15,2.05,migration z above 2; enough cells,1.42,6318,active
ASB8,-0.34,migration z between -2 and 2; enough cells,0.74,5436,inactive
KIF18B,0.32,migration z between -2 and 2; enough cells,0.97,6960,inactive
PCBD1,-0.9,migration z between -2 and 2; enough cells,0.63,5359,inactive
RBBP8,-1.02,migration z between -2 and 2; enough cells,0.62,3372,inactive
OAF,0.2,migration z between -2 and 2; enough cells,0.93,5342,inactive
KRTAP5-3,0.74,migration z between -2 and 2; enough cells,1.08,5720,inactive
PRKAG3,-1.03,under 3300 nuclei; migration not judged,0.6,2638,inactive
B3GNT6,0.57,migration z between -2 and 2; enough cells,0.92,6058,inactive
PLSCR2,-0.99,migration z between -2 and 2; enough cells,0.62,6420,inactive
ESX1,0,migration z between -2 and 2; enough cells,0.88,6484,inactive
AK3,0.88,migration z between -2 and 2; enough cells,0.98,5359,inactive
NCS1,-2.91,migration z below -2; enough cells,0.14,4434,active
FZD3,1.61,migration z between -2 and 2; enough cells,1.12,5497,inactive
C12orf57,1.87,migration z between -2 and 2; enough cells,1.37,6860,inactive
H2BC11,-0.06,migration z between -2 and 2; enough cells,0.87,4690,inactive
NUTF2,1.06,migration z between -2 and 2; enough cells,1.01,5218,inactive
GZF1,-0.76,migration z between -2 and 2; enough cells,0.69,5594,inactive
INO80D,0.06,migration z between -2 and 2; enough cells,0.9,5381,inactive
ARFGAP2,-1.27,migration z between -2 and 2; enough cells,0.55,5264,inactive
TEC,-1.77,under 3300 nuclei; migration not judged,0.46,3067,inactive
TNFSF12,-0.19,migration z between -2 and 2; enough cells,0.84,7052,inactive
CDC7,0.24,migration z between -2 and 2; enough cells,0.85,5186,inactive
MICU2,-1.25,migration z between -2 and 2; enough cells,0.56,5967,inactive
RAD23A,0.78,migration z between -2 and 2; enough cells,0.96,5420,inactive
UBLCP1,-0.72,migration z between -2 and 2; enough cells,0.66,4998,inactive
HIPK4,-0.02,migration z between -2 and 2; enough cells,0.8,6297,inactive
CENPC,-0.9,migration z between -2 and 2; enough cells,0.66,5300,inactive
PCDHAC2,-1.64,migration z between -2 and 2; enough cells,0.46,5718,inactive
GTPBP6,-1.02,migration z between -2 and 2; enough cells,0.62,5158,inactive
GBP7,2.02,migration z above 2; enough cells,1.41,5852,active
STAB1,-0.5,migration z between -2 and 2; enough cells,0.76,6596,inactive
LPO,-0.24,migration z between -2 and 2; enough cells,0.76,6492,inactive
TLCD3A,-0.76,migration z between -2 and 2; enough cells,0.68,4320,inactive
DCAF10,0.92,migration z between -2 and 2; enough cells,1.12,7302,inactive
CATSPERE,0.13,migration z between -2 and 2; enough cells,0.92,6030,inactive
GRK6,-3.21,under 3300 nuclei; migration not judged,0.18,3298,inactive
